From the supplement of paper PMC6089552
The hits were mostly taken out for another list; the other results follow.

Test system: A673/TR/shEF
Test: cell viability (LOESS-normalised, relative to median of negative controls) (log2 ratio); higher = more viable cells (less compound effect), active = hit call of the paper (over 3 MAD below the median)
Settings: treatment time: 72 h
Outline: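 A673/TR/shEF Ewing sarcoma cells were plated at 1,500 per well in 384-well plates and cultured with or without doxycycline, added 24 h before compounds, to induce EWS-FLI1 shRNA knockdown. Library compounds at two or more concentrations, alongside DMSO controls, were applied for three days. Cell viability was measured by CellTiter-Glo luminescence on an Envision reader. Readings were LOESS-corrected per plate, divided by the median of negative controls and log2-transformed, and hits were wells lying at least three median absolute deviations from the median of all screened wells.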

Measured: cell viability (log2)

CN1C2CCC1CC(OC(=O)C(O)c1ccccc1)C2 (stereo not drawn)
inactive: 0.25 µM, library screen: screen1, EWS-FLI1 expression: high (no doxycycline) 0.123 | 0.25 µM, library screen: screen1, EWS-FLI1 expression: low (doxycycline-induced shRNA knockdown) 0.0672 | 0.25 µM, library screen: screen2, EWS-FLI1 expression: high (no doxycycline) 0.161 | 0.25 µM, library screen: screen2, EWS-FLI1 expression: low (doxycycline-induced shRNA knockdown) 0.0942 | 2.5 µM, library screen: screen1, EWS-FLI1 expression: high (no doxycycline) 0.205 | 2.5 µM, library screen: screen1, EWS-FLI1 expression: low (doxycycline-induced shRNA knockdown) 0.183 | 2.5 µM, library screen: screen2, EWS-FLI1 expression: high (no doxycycline) 0.182 | 2.5 µM, library screen: screen2, EWS-FLI1 expression: low (doxycycline-induced shRNA knockdown) 0.0952
